The supplement of paper PMC11060735
Several values for one entry are separate records, joined by “and”; a condition that tells them apart may be missing. Equal values may be shown once. Where a name gives a salt, the structure may show the parent alone. ± gives the standard deviation of the averaged measurements. The full ranking holds about 1,800 compounds; the median of “GFP- (p16Ink4a-) cell count relative to negative-control wells” is about 0.99, and the lowest 2% start at about 0.5. The list shows a part of the results.

Each molecule was assayed on mouse p16Ink4a+/- lung fibroblasts (INKBRITE, bleomycin-injured) (assay: GFP- (p16Ink4a-) cell count relative to negative-control wells (fold of vehicle); higher = more p16Ink4a- cells surviving). Conditions: 1 µM; 3 days.
Work on `O=C(O[C@H]1C[C@H]2CC[C@@H](C1)[N+]21CCCC1)C(O)(c1ccccc1)c1ccccc1` [Trospium] yielded a GFP- of 0.905.
`O=C1C=CC[C@@H]2[C@H]3CCCN4CCC[C@@H](CN12)[C@@H]34` [Sophocarpine] showed a GFP- of 1.13.
`COC[C@H]1OC(=O)c2coc3c2[C@@]1(C)C1=C(C3=O)[C@@H]2CCC(=O)[C@@]2(C)C[C@H]1OC(C)=O` [Wortmannin] showed a GFP- of 1.07.
`CC[C@@]1(O)C(=O)OCc2c1cc1n(c2=O)Cc2cc3ccccc3nc2-1` [Camptothecin] showed a GFP- of 0.7.
In the case of `C[C@@]12N[C@@H](Cc3ccccc31)c1ccccc12` [(-)-MK 801 Maleate], the GFP- is reported as 1.02.
Molecule `Cc1sc2c(c1C)C(c1ccc(Cl)cc1)=N[C@@H](CC(=O)Nc1ccc(O)cc1)c1nnc(C)n1-2` has a GFP- of 0.844 ± 0.048.
Molecule `Cc1cccc(Cc2c[nH]cn2)c1C` [Detomidine HCl] has a GFP- of 0.991.
Work on `CN(C)[C@@H]1C(=O)C(C(N)=O)=C(O)[C@@]2(O)C(O)=C3C(=O)c4c(O)cccc4[C@@](C)(O)[C@H]3[C@H](O)[C@@H]12` [Oxytetracycline] yielded a GFP- of 1.13.
`CN(C)CCc1ccc(O)cc1` [Hordenine] was tested, and the GFP- was 1.1.
`COC1=C[C@@H]2[C@@H]3Cc4ccc(OC)c(O)c4[C@]2(CCN3C)CC1=O` [Sinomenine] gave a GFP- of 1.08.
With `CCC1(c2ccc(N)cc2)CCC(=O)NC1=O` (racemic) [(¬±)-p-aminoglutethimide, Aminoglutethimide] the GFP- was 1.
`CC1(C)CC(O)CC(C)(C)N1O` [Tempol] gave a GFP- of 1.05.
`O=C(O[C@H]1C[N+]2(CCCOc3ccccc3)CCC1CC2)C(O)(c1cccs1)c1cccs1` [Aclidinium] gave a GFP- of 1.03.
Work on `CN1c2ccccc2C(NCCCCCCC(=O)O)c2ccc(Cl)cc2S1(=O)=O` (stereo unspecified) [Tianeptine] yielded a GFP- of 1.04.
With `C[C@H]1CNCCc2ccc(Cl)cc21` [Lorcaserin] the GFP- was 1.02.
With `N#CC(C#N)=Cc1ccc(O)c(O)c1` the GFP- was 1.13.
With `CC(C)(C)c1cc(C=C(C#N)C#N)cc(C(C)(C)C)c1O` [Tyrphostin A9] the GFP- was 0.845.
`CC(C)(C)c1cc(C=C(C#N)C#N)cc(Br)c1O` gave a GFP- of 0.552.
`CCCN1C[C@H](CSC)C[C@@H]2c3cccc4[nH]cc(c34)C[C@H]21` [Pergolide] showed a GFP- of 0.869.
With `CN(C)[C@@H]1C(=O)C(C(N)=O)=C(O)[C@@]2(O)C(O)=C3C(=O)c4c(O)cccc4[C@@](C)(O)[C@H]3C[C@@H]12` [Tetracycline] the GFP- was 1.07.
`CC(NC(C)(C)C)C(=O)c1cccc(Cl)c1` (stereo unspecified) was tested, and the GFP- was 0.921.
`C[C@]12CC(C=O)=C(O)C[C@@H]1CC[C@@H]1[C@H]2CC[C@@]2(C)[C@H]1CC[C@@]2(C)O` [Oxymetholone] was tested, and the GFP- was 0.957.
`CCNC(=O)C[C@@H]1N=C(c2ccc(Cl)cc2)c2cc(OC)ccc2-n2c(C)nnc21` showed a GFP- of 1.04 ± 0.19.
`c1cc2c(cc1[C@H]1OC[C@H]3[C@@H]1CO[C@@H]3c1ccc3c(c1)OCO3)OCO2` [Sesamin] was tested, and the GFP- was 1.02.
For `CN1CCN(c2nc3ccccc3nc2Cl)CC1`, the GFP- was 1.06.
In the case of `Cn1c(CCCC(=O)O)nc2cc(N(CCCl)CCCl)ccc21` [Bendamustine], the GFP- is reported as 0.945.
For `Cc1cccc(C)c1NC(=O)CN1CCCC1=O` [Nefiracetam], the GFP- was 0.97.
Molecule `CC(C)NCC(O)c1ccccc1Cl` (stereo unspecified) [Clorprenaline] has a GFP- of 1.02.
Work on `CCOC(=O)c1cncn1C(C)c1ccccc1` (stereo unspecified) [Etomidate] yielded a GFP- of 1.09.
`O=C(NCC1CCOCC1)c1cnc(Nc2ccc(Cl)cc2Cl)nc1C(F)(F)F` gave a GFP- of 1.07.
Molecule `CN(C)C(=O)Oc1ccc[n+](C)c1` [Pyridostigmine] has a GFP- of 0.948.
For `O=[N+]([O-])c1ncc[nH]1` [Azomycin], the GFP- was 0.973.
`O=C(O)CNC(=O)c1c(O)c2ccccc2n(Cc2ccccc2)c1=O` was tested, and the GFP- was 1.07 ± 0.046.
For `N#C[C@H](O[C@@H]1O[C@H](CO[C@@H]2O[C@H](CO)[C@@H](O)[C@H](O)[C@H]2O)[C@@H](O)[C@H](O)[C@H]1O)c1ccccc1` [Amygdalin(d)], the GFP- was 1.01.
`CO[C@H]1CCC(O[C@H]2C[C@H]([C@]3(C)CC[C@]4(C[C@H](O)[C@@H](C)[C@@H]([C@@H](C)/C=C(\C)C(=O)[C@H](C)C[C@H](C)C(=O)O)O4)O3)O[C@]3(O[C@@H]([C@H]4O[C@@](O)(CO)[C@H](C)C[C@@H]4C)C[C@@H]3C)[C@@H]2C)O[C@@H]1C` (stereo partly specified) [Nanchangmycin] showed a GFP- of 0.412.
With `OC(c1ccccc1)(c1ccccc1)C1CCNCC1` [Azacyclonol] the GFP- was 0.849.
`Fc1cc(F)c2c(c1)[C@H]1C=CC[C@H]1C(c1cccnc1)N2` (stereo partly specified) [Golgicide A] was tested, and the GFP- was 1.02.
For `CN1[C@@H]2C[C@@H](OC(=O)[C@H](CO)c3ccccc3)C[C@H]1[C@@H]1O[C@@H]12` [Scopolamine], the GFP- was 0.984.
In the case of `CNCC(O)c1ccc(O)cc1` (stereo unspecified) [Synephrine], the GFP- is reported as 0.99 and 0.934.
Work on `O=[N+]([O-])/C=C/c1ccc2c(c1)OCO2` yielded a GFP- of 1.03.
`CN1C(=O)CCS(=O)(=O)C1c1ccc(Cl)cc1` (stereo unspecified) [Chlomezanone, Chlormezanone] was tested, and the GFP- was 1.03.
With `C[C@@H]1CC[C@H]2[C@@H](C)C(=O)O[C@@H]3O[C@@]4(C)CC[C@@H]1[C@]32OO4` [Artemisinin] the GFP- was 0.865.
`CC(=O)O[C@H]1C[C@@H]2CC[C@@H]3[C@H](CC[C@@]4(C)[C@H]3C[C@H]([N+]3(C)CCCCC3)[C@@H]4OC(C)=O)[C@@]2(C)C[C@@H]1[N+]1(C)CCCCC1` [Pancuronium] gave a GFP- of 1.02.
For `CCCCCCCCCCCCCCCC[n+]1ccccc1` [Cetylpyridinium Bromide], the GFP- was 0.866.
`c1ccc2c(c1)Nc1ccccc1S2` [Phenothiazine] was tested, and the GFP- was 1.1.
With `CC[C@H]1/C=C\C=C/C[C@@H](C)[C@H](O)[C@@](C)(O)C(=O)[C@@H](C)[C@H](O)[C@@H](C)C(=O)[C@@H](C)[C@H](O)[C@@H](C)/C=C/C(=O)O[C@@H]2C(C)[C@H](CC1)O[C@]1(CC[C@H](C)[C@H](C[C@@H](C)O)O1)[C@H]2C` (stereo partly specified) [Oligomycin A] the GFP- was 0.887.
With `C[C@H]1CCC/C=C/[C@@H]2C[C@H](O)C[C@H]2[C@H](O)/C=C/C(=O)O1` [Brefeldin A] the GFP- was 0.4.
In the case of `CCCN1CCO[C@H]2c3cc(O)ccc3OC[C@@H]21`, the GFP- is reported as 1.04.
Molecule `C[C@]12CCC(=O)C(O)=C1CC[C@@H]1[C@@H]2CC[C@]2(C)C(=O)CC[C@@H]12` [Formestane] has a GFP- of 1.08.
`CCN1C[C@]2(OC(=O)c3ccccc3NC(C)=O)CC[C@H](OC)[C@]34C1[C@H](C[C@H]23)[C@@]1(O)C[C@H](OC)[C@H]2C[C@@H]4[C@]1(O)[C@H]2OC` [Lappaconite HBr] showed a GFP- of 0.936.
With `C#C[C@]1(O)C=C[C@H]2[C@@H]3CCC4=CC(=O)CC[C@@H]4[C@H]3CC[C@@]21CC` [Gestodene] the GFP- was 1.08.
`C[C@]12N[C@H](Cc3ccccc31)c1ccccc12` [(+)-mk-801 Hydrogen Maleate] was tested, and the GFP- was 1.17.
`CC[C@@H]1[C@@H](C)O[C@@](O)([C@@H](C)[C@H](O)[C@H](C)[C@H]2OC(=O)/C=C/C=C/[C@H](C)[C@H]([C@@H](C)[C@@H](O)[C@H](C)[C@@]3(O)C[C@@H](O[C@H]4C[C@H](O)[C@H](O)[C@H](C)O4)[C@H](CC)[C@@H](C)O3)OC(=O)/C=C/C=C/[C@H]2C)C[C@H]1O[C@H]1C[C@H](O)[C@H](O)[C@H](C)O1` [Elaiophylin] was tested, and the GFP- was 0.414.
`CC(=O)O[C@@]12CO[C@@H]1C[C@H](O)[C@@]1(C)C(=O)[C@H](O)C3=C(C)[C@@H](O)C[C@@](O)([C@@H](OC(=O)c4ccccc4)[C@H]21)C3(C)C` [10-Deacetylbaccatin-III] showed a GFP- of 1.07.
`C/C(=C\c1csc(C)n1)[C@@H]1C[C@@H]2O[C@]2(C)CCC[C@H](C)[C@H](O)[C@@H](C)C(=O)C(C)(C)[C@@H](O)CC(=O)O1` [Epothilone B, Patupilone] gave a GFP- of 1.03.
For `CC(=O)Nc1ccc(OC[C@](C)(O)C(=O)Nc2ccc([N+](=O)[O-])c(C(F)(F)F)c2)cc1` [Andarine], the GFP- was 1.
`O=c1cccc2n1C[C@@H]1CNC[C@H]2C1` [Cytisine] gave a GFP- of 0.919.
Work on `CC[C@@H](C(N)=O)N1CCCC1=O` [Levetiracetam] yielded a GFP- of 0.963.
With `CCC1(C)CC(=O)NC(=O)C1` [Bemegride] the GFP- was 0.914.
For `Cc1sc2c(c1C)C(c1ccc(Cl)cc1)=N[C@@H](CC(=O)OC(C)(C)C)c1nnc(C)n1-2`, the GFP- was 0.802 ± 0.12.
`CN1[C@@H]2CC[C@H]1CC(OC(=O)C1C=Nc3ccccc31)C2` (stereo partly specified) [Tropisetron] gave a GFP- of 1.13.
